Laboratory results reported in US12643867B2, “Compositions and uses thereof” (University of Virginia Patent Foundation, priority 2017, dated 2026).

Target: T1, Alpha (DGK alpha; only in reference sheet cells) (Rattus norvegicus, UniProt P51556)
T1 sequence (P51556 1-727): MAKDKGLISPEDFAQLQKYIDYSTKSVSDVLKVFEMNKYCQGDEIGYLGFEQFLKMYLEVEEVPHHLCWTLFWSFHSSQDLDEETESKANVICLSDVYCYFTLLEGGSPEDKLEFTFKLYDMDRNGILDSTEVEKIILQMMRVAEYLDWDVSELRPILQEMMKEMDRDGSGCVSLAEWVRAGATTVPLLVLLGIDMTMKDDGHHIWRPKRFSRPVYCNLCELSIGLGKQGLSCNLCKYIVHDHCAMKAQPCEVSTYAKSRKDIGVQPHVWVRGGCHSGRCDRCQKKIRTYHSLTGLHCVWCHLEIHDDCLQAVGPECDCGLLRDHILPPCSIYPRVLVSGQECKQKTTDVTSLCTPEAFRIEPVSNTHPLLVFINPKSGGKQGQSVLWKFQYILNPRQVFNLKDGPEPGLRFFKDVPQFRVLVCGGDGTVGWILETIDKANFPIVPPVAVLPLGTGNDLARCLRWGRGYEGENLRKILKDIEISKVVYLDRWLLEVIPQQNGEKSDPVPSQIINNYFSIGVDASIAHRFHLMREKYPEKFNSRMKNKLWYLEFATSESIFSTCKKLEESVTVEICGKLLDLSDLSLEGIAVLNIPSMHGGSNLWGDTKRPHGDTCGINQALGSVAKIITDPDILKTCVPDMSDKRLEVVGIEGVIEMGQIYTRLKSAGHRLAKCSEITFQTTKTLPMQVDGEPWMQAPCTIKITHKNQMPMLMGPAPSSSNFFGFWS
Test: DGK isoform % Activity screen
Assay type: biochemical

`CN1C2CCC1CC(OC(c1ccccc1)c1ccccc1)C2` (centres unmarked) [TH004] was tested, and the activity at 100 µM (read-out: 100 uM % Activity (section without isoform head; Alpha)) was 93% and the activity at 1000 µM (read-out: 1 mM % Activity (section without isoform head; Alpha)) was 1%.
